Source: PubChem BioAssay AID493014 (National Center for Advancing Translational Sciences (NCATS), 2011)
Several values for one entry are separate records, joined by “and”; a condition that tells them apart may be missing. Equal values may be shown once. The list shows a part of the results. Shown are side measurements of this screen, not its main read-out; they come without a call. Most of these compounds were active or inconclusive in the main read-out, so they are no random draw. The note in brackets gives the kind of curve behind each potency; many fits are weak.

Assay: qHTS Assay to Find Inhibitors of Chronic Active B-Cell Receptor Signaling
Conditions: ABC-DLBCL IkBa-CBG/CBR reporter, luminescence ratio (green luciferase fused to IkBa over red control in TMD8 lymphoma cells), 4 h
Procedure, shortened: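 Doxycycline induced both beetle luciferases in TMD8 lymphoma cells; IKK-driven degradation limits the IkappaBalpha-fused green signal, while red luminescence normalises for cell number and nonspecific effects. Compounds tested up to 46 uM, 4 hrs.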

[1] = measured here: CBR red luminescence, cell number
[2] = measured here: IkBa-CBG green luminescence

| Compound | AC50 [1] | AC50 [2] |
| --- | --- | --- |
| Cc1ccc(C)c(NC(=O)CN2C(=O)CNC2=O)c1 | 25.9 µM [falling, single point] |  |
| Cc1c(C(=O)Nc2ccc3c(c2)OCCO3)sc2ncnc(N3CCCCC3C)c12 (stereo unspecified) | 35.5 µM [falling, single point] |  |
| COc1cccc(OC)c1C(=O)OCC(=O)/C(C#N)=C(\C)N | 31.6 µM [rising, single point] |  |
| O=C1OC(c2ccccc2)/C(=C(/O)c2ccc(Cl)cc2)C1=O (stereo unspecified) | 29.1 µM [falling, single point] |  |
| O=C(COc1ccc(Br)cc1Br)NC(=S)N1CCCc2ccccc21 | 5.8 µM [rising, full curve, poor fit] |  |
| Cc1ccc(S(=O)(=O)N2CCN(C(=O)Cn3c(=O)oc4ccccc43)CC2)cc1 | 25.9 µM [falling, single point] |  |
| CCCC(=O)Nc1ccc(S(=O)(=O)N2CCC(c3nc4ccccc4[nH]3)CC2)cc1 | 2.31 µM [rising, partial curve, poor fit] |  |
| O=[N+]([O-])c1cc(Cl)c(O)c2ncccc12 | 8.91 µM [rising, partial curve, poor fit] | 11.2 µM [falling, partial curve] |
| CC(C)(C)C(=O)Nc1ccccc1C(=O)Nc1cc(Cl)ccc1Cl | 14.1 µM [rising, single point] |  |
| Cn1cccc1Cc1nnc(SCC(=O)Nc2ccc(Cl)cc2)n1-c1ccc(F)cc1 | 20.6 µM [falling, partial curve, poor fit] |  |
| O=C(CN1CCC(C(=O)c2ccc3c(c2)OCCO3)CC1)Nc1ccccc1C(F)(F)F | 6.31 µM [falling, single point] |  |
| CCCCN(CC)c1nc(-c2ccncc2)nc2ccccc12 | 8.2 µM [falling, partial curve] |  |
| Clc1ccc(SCc2csc(N3CCOCC3)n2)cc1 | 2.24 µM [rising, partial curve, poor fit] |  |
| COc1ccnc(Oc2ccc(F)cc2)c1C(=O)N/C=N/OCc1c(Cl)cccc1Cl | 20.6 µM [falling, single point] |  |
| C/C(=N\N=c1/sc2ccccc2n1C)c1ccccn1 | 20 µM [rising, partial curve, poor fit] |  |
| CCOC(=O)C1=CN(Cc2ccco2)S(=O)(=O)N(C)C1c1ccc2ccccc2c1 (stereo unspecified) | 29.1 µM [rising, single point] |  |
| O=C(COc1cccc2cccnc12)N/N=C/c1cccn1-c1ccc(F)cc1 | 5.62 µM [rising, single point] |  |
| Cn1c2c(c(=O)n(C)c1=O)C1(C(=O)Nc3ccccc31)C(C#N)=C(N)O2 (stereo unspecified) | 1.58 µM [falling, partial curve] |  |
| CCc1nc2cc(Cl)c(Cl)cc2[nH]1 | 3.26 µM [rising, single point] |  |
| O=C(Nc1ccc(Cl)cc1)c1ccc2c(c1)OCO2 | 12.6 µM [falling, partial curve] |  |
| Cc1cccc(NC(=O)CN2CCc3cc4c(cc3C2C)OCCCO4)c1 (stereo unspecified) | 12.6 µM [falling, single point] |  |

| Compound | AC50 [1] | AC50 [2] |
| --- | --- | --- |
| CCN1CCc2c(OCC(=O)Nc3cccc(C)c3)cccc2C1=O | 35.5 µM [falling, single point] |  |
| COCCNC(=O)CSc1nc2cc(OC)c(OC)cc2c(=O)n1CCC1=CCCCC1 | 29.1 µM [rising, partial curve, poor fit] |  |
| CCN(CC)CCN(C(=O)c1ccccc1OC)c1nc2ccc(F)cc2s1 | 35.5 µM [falling, single point] |  |
| CSc1nnnn1-c1c(C)cc(C)cc1C | 35.5 µM [rising, single point] |  |
| O=C1S/C(=C\c2ccc(O)c([N+](=O)[O-])c2)C(=O)N1c1ccccc1Cl | 35.5 µM [falling, single point] |  |
| CSc1nc(N(C)NC(=O)c2ccccc2)c2ccccc2n1 | 18.4 µM [rising, single point] | 20.6 µM [falling, single point] |
| Cc1nc(Cl)sc1C(=O)Nc1cccc(Cl)c1C | 0.461 µM [falling, partial curve, poor fit] |  |
| O=C(Nc1nc2cc3c(cc2s1)OCO3)C1=COCCO1 | 4.61 µM [falling, full curve] |  |
| CC(=O)OCC(=O)[C@@]1(O)CC[C@H]2[C@@H]3CCC4=CC(=O)C=C[C@]4(C)[C@H]3[C@@H](O)C[C@@]21C | 0.116 µM [rising, full curve] | 2.31 µM [falling, partial curve] |
| Cc1cc2nc(-c3ccc(SCc4ccc(C#N)cc4)nc3)[nH]c2cc1C | 8.91 µM [falling, partial curve, poor fit] |  |
| O=C(Nc1ccc(Cl)c([N+](=O)[O-])c1)C(Sc1ccccc1)c1ccccc1 (stereo unspecified) | 11.6 µM [falling, partial curve] | 10.3 µM [rising, partial curve, poor fit] |
| COc1cc(CCC(=O)NCc2ccc3c(c2)CCN3C(=O)c2cccc(C)c2)cc(OC)c1OC | 28.2 µM [falling, partial curve, poor fit] |  |
| CCS(=O)(=O)N1CCCC(C(=O)NC2CCCC2)C1 (stereo unspecified) | 3.16 µM [rising, partial curve, poor fit] |  |
| Cc1ccc(S(=O)(=O)N(CCC#N)C2CCCCC2)c2nsnc12 | 3.66 µM [rising, partial curve, poor fit] |  |
| CCOC(=O)c1c(C)[nH]c(C(C)=NNC(=O)c2cccs2)c1C | 32.6 µM [falling, single point] |  |
| Cc1ccc2nc(-c3ccccc3)cc(C(=O)O)c2c1 | 7.94 µM [falling, partial curve, poor fit] |  |
| CCOC(=O)C1=C(c2ccccc2)N=c2s/c(=C\c3cc(OC)c(OC)c(OC)c3)c(=O)n2C1c1cccs1 (stereo unspecified) | 6.31 µM [falling, partial curve, poor fit] |  |
| CCc1cnc2c(c1SCC(=O)NCc1ccccc1)c(=O)n(C)c(=O)n2C | 22.4 µM [rising, single point] |  |
| COC(=O)c1sccc1NC(=O)Nc1cc(C)ccc1OC | 15.8 µM [falling, single point] |  |
| Cc1ccc(-c2csc(NC3OC(=O)c4ccccc43)n2)cc1 (stereo unspecified) | 5.01 µM [falling, full curve, poor fit] |  |
| Cc1ccc(O)c(C(=O)c2cc(C#N)c3nc4ccccc4n3c2)c1 | 1.41 µM [rising, partial curve, poor fit] |  |

2 entries from above, with bars between the fields:
Compound | AC50 [1] | AC50 [2]
O=C1S/C(=C\c2ccc(O)c([N+](=O)[O-])c2)C(=O)N1c1ccccc1Cl | 35.5 µM [falling, single point] | 
Cc1ccc(O)c(C(=O)c2cc(C#N)c3nc4ccccc4n3c2)c1 | 1.41 µM [rising, partial curve, poor fit] | 

(cont.)

| Compound | AC50 [1] | AC50 [2] |
| --- | --- | --- |
| O=C1CC(Nc2ccc(N3CCOCC3)cc2)C(=O)N1CCc1ccccc1 (stereo unspecified) | 2.06 µM [rising, partial curve] |  |
| Cc1nn(-c2ccccc2)c(C)c1/C=N/NC(=O)CSc1nnc(SCc2ccc(Cl)cc2)s1 | 18.4 µM [falling, partial curve, poor fit] |  |
| CC1=CCC2C(=O)N(c3cccc(C(=O)NCc4ccccc4)c3)C(=O)C2C1 (stereo unspecified) | 17.8 µM [rising, partial curve, poor fit] |  |
| Cc1ccc(C(=O)Nc2nnc(C3CCCCC3)s2)o1 | 23.1 µM [falling, partial curve, poor fit] |  |
| Cc1c(CCOC(=O)CC23CC4CC(CC(C)(C4)C2)C3)sc[n+]1Cc1ccc([N+](=O)[O-])cc1 | 17.8 µM [falling, partial curve, poor fit] |  |
| CCOc1ccc(NC(=O)NCc2cccn2C)cc1 | 35.5 µM [falling, single point] |  |
| COC(=O)C1=C(C)N(Cc2ccccc2)C(=S)N[C@H]1c1ccc(Br)cc1 | 15.8 µM [falling, partial curve, poor fit] and 6.51 µM [falling, partial curve] |  |
| COc1ccc(NC(=O)CN(c2ccc([N+](=O)[O-])cc2)S(=O)(=O)c2ccccc2)cc1 | 23.1 µM [falling, single point] |  |
| CCOc1ccc(/C=C2/SC(=S)N(C(C(=O)O)c3ccccc3)C2=O)cc1OCC (stereo unspecified) | 35.5 µM [falling, single point] | 31.6 µM [rising, partial curve, poor fit] |
| COCc1ccc(C(=O)NC2CCCc3c2cnn3-c2cc(C)cc(C)c2)s1 (stereo unspecified) | 35.5 µM [falling, partial curve, poor fit] |  |
| COc1ccccc1C(=O)NCC(c1ccco1)N1CCc2ccccc21 (stereo unspecified) | 16.4 µM [falling, single point] |  |
| O=C(Nc1ccccc1F)c1oc2ccccc2c1NC(=O)C1CC1 | 17.8 µM [falling, partial curve, poor fit] |  |
| Cc1cc(Nc2cnc3ccccc3n2)n(-c2ccccc2)n1 | 7.94 µM [falling, partial curve] |  |
| COC(=O)c1ccc(NC(=O)c2ccccc2SC)cc1 | 4.47 µM [falling, partial curve] |  |
| O=C(Nc1nccs1)c1cc2c(s1)CCCCC2 | 1.16 µM [falling, partial curve] |  |
| CC(=O)Nc1ccc(C(=O)OCC(=O)Nc2c(F)cccc2F)cc1 | 11.2 µM [rising, partial curve, poor fit] |  |
| Cc1n[nH]c(C)c1S(=O)(=O)NCCc1ccc(Cl)cc1 | 29.1 µM [falling, single point] |  |
| COc1ccc(/C(C)=N/Nc2ccc(C(=O)O)cc2)c(OC)c1 | 0.0291 µM [falling, full curve] |  |
| O=C(Nc1ccc2c(c1)oc1ccc(S(=O)(=O)N3CCCC3)cc12)C1CC1 | 1.84 µM [rising, partial curve, poor fit] |  |

Single values from the entries so far:
For AC50 [1], `CC(=O)Nc1ccc(C(=O)OCC(=O)Nc2c(F)cccc2F)cc1` has 11.2 µM [rising, partial curve, poor fit]
For AC50 [1], `COC(=O)c1ccc(NC(=O)c2ccccc2SC)cc1` has 4.47 µM [falling, partial curve]
For AC50 [1], `Cc1c(CCOC(=O)CC23CC4CC(CC(C)(C4)C2)C3)sc[n+]1Cc1ccc([N+](=O)[O-])cc1` has 17.8 µM [falling, partial curve, poor fit]
